Record: PubChem BioAssay AID1224830 (NIAID, 2016)

Aim: 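Host factors that control LPS-induced TNF expression in human macrophages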 (primary screen)
System: human THP-1 monocytic leukaemia cells, TNF dual-luciferase reporter clone, PMA-differentiated to macrophage-like cells
Reagent: siRNA pool against human genes, 50 nM
Time to read-out: LPS for 4 h, given about 3 days after siRNA transfection
Conditions: bacterial LPS (TLR4 ligand), 10 ng/ml
Measurement: 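Ratio of firefly to renilla light, scaled to the plate median and expressed as a robust z-score per replicate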
Scale: TNF reporter robust z-score: higher = stronger TNF reporter response to LPS
Hit rule: 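Each well counts as active if its z-score is over 2.8 or under -1.5; controls are left without a call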
The deposit covers about 18,000 reagents; below is a random part of them. Over the whole deposit, about 2,900 (16%) were called active. 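Calls are made per well; low scores hint the gene aids the LPS response, high scores that it dampens it.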 Repeated entries: four replicate wells of each siRNA pool.

no.	gene symbol	PubChem SID	TNF reporter robust z-score	Outcome
1	SLC35F5	SID315459722	0.48	inactive
2	SLC35F5	SID315459722	2.11	inactive
3	SLC35F5	SID315459722	3.55	active
4	SLC35F5	SID315459722	2.47	inactive
5	GOLGA7	SID315456492	0.71	inactive
6	GOLGA7	SID315456492	1.06	inactive
7	GOLGA7	SID315456492	0.91	inactive
8	GOLGA7	SID315456492	1.38	inactive
9	ORC3	SID315455356	-0.29	inactive
10	ORC3	SID315455356	-0.6	inactive
11	ORC3	SID315455356	0.07	inactive
12	ORC3	SID315455356	-0.13	inactive
13	LRIG3	SID315461512	-0.82	inactive
14	LRIG3	SID315461512	0.54	inactive
15	LRIG3	SID315461512	-0.48	inactive
16	LRIG3	SID315461512	-0.06	inactive
17	MAP9	SID315459537	0.25	inactive
18	MAP9	SID315459537	0.18	inactive
19	MAP9	SID315459537	-0.34	inactive
20	MAP9	SID315459537	-0.25	inactive
21	TBC1D29P	SID315455656	-1.41	inactive
22	TBC1D29P	SID315455656	-0.93	inactive
23	TBC1D29P	SID315455656	-1.03	inactive
24	TBC1D29P	SID315455656	-1.13	inactive
25	CST9L	SID315461812	-0.16	inactive
26	CST9L	SID315461812	0.13	inactive
27	CST9L	SID315461812	-0.6	inactive
28	CST9L	SID315461812	1.11	inactive
29	GOLGA2	SID315448966	0.47	inactive
30	GOLGA2	SID315448966	1.36	inactive
31	GOLGA2	SID315448966	0.01	inactive
32	GOLGA2	SID315448966	2.55	inactive
33	CKS1B	SID315447947	-0.2	inactive
34	CKS1B	SID315447947	0.31	inactive
35	CKS1B	SID315447947	0.69	inactive
36	CKS1B	SID315447947	0.62	inactive

Targets above whose gene name starts with L or l (4):
gene symbol	PubChem SID	TNF reporter robust z-score	Outcome
LRIG3	SID315461512	-0.82	inactive
LRIG3	SID315461512	0.54	inactive
LRIG3	SID315461512	-0.48	inactive
LRIG3	SID315461512	-0.06	inactive

More results follow.
no.	gene symbol	PubChem SID	TNF reporter robust z-score	Outcome
37	OR1A1	SID315452525	-0.15	inactive
38	OR1A1	SID315452525	1.08	inactive
39	OR1A1	SID315452525	-0.63	inactive
40	OR1A1	SID315452525	0.88	inactive
41	IL21R	SID315456334	-1.07	inactive
42	IL21R	SID315456334	-1.08	inactive
43	IL21R	SID315456334	-0.97	inactive
44	IL21R	SID315456334	-0.39	inactive
45	TTN	SID315452004	-1.15	inactive
46	TTN	SID315452004	1.09	inactive
47	TTN	SID315452004	0.27	inactive
48	TTN	SID315452004	-0.52	inactive
49	RTL8B	SID315464945	-0.83	inactive
50	RTL8B	SID315464945	-0.55	inactive
51	RTL8B	SID315464945	-0.63	inactive
52	RTL8B	SID315464945	-1.27	inactive
53	PLEKHB1	SID315458620	-0.35	inactive
54	PLEKHB1	SID315458620	-0.73	inactive
55	PLEKHB1	SID315458620	0.72	inactive
56	PLEKHB1	SID315458620	-0.02	inactive
57	ZC3H12A	SID315459669	-0.99	inactive
58	ZC3H12A	SID315459669	-0.85	inactive
59	ZC3H12A	SID315459669	-1.11	inactive
60	ZC3H12A	SID315459669	0	inactive
61	IL12A	SID315449480	-1.86	active
62	IL12A	SID315449480	-1.32	inactive
63	IL12A	SID315449480	-1.74	active
64	IL12A	SID315449480	-1.44	inactive
65	PTGER2	SID315450930	-1.2	inactive
66	PTGER2	SID315450930	-1.29	inactive
67	PTGER2	SID315450930	-1	inactive
68	LXN	SID315458166	3.08	active
69	LXN	SID315458166	0.93	inactive
70	LXN	SID315458166	3.06	active
71	LXN	SID315458166	1.97	inactive
72	C15orf32	SID315462258	0.59	inactive
73	C15orf32	SID315462258	0.49	inactive
74	C15orf32	SID315462258	0.28	inactive
75	C15orf32	SID315462258	0.1	inactive
